Assay [1] deals with Cx36-EGFP fusion protein (mouse) (UniProt O54851). Kind of assay: co-IP; uMACS GFP Isolation Kit: magnetic beads coupled to anti-GFP antibody; extracts of co-transfected HeLa cells in IP buffer (0.5% NP-40, 20 mM Tris, 60 mM NaCl, pH 7.4); Western blot with anti-Cx30.2, anti-Cx36, anti-GFP. For orientation: A western blot detects proteins with antibodies after separation by electrophoresis.

By UniProt entry, the sequences of proteins in these tests, tags left out.
UniProt O54851: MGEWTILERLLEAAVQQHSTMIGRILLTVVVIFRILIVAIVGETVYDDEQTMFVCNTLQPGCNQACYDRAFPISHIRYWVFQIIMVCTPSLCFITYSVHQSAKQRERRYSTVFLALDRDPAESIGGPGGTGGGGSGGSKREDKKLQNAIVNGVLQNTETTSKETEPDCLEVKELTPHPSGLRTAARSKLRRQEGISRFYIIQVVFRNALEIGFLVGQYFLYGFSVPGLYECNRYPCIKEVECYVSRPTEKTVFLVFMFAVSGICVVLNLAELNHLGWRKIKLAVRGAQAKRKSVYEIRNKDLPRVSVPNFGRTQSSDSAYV
UniProt Q91YD1: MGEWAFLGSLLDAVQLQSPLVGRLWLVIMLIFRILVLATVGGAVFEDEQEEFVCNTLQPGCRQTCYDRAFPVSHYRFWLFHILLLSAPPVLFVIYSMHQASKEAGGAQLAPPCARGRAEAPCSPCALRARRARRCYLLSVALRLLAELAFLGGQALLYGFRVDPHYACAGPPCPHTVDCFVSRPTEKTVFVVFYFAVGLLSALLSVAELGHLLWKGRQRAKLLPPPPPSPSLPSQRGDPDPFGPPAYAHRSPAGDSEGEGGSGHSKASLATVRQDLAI

In assay [2] the target is Cx30.2-EGFP fusion protein (mouse) (UniProt Q91YD1). The assay is described as above.
Assay [3] concerns the target Connexin30.2 (Cx30.2), untagged (mouse) (UniProt Q91YD1). Description: co-IP; anti-Cx30.2 antibodies coupled to beads; untagged Cx30.2 and Cx36 co-expressed in HeLa cells; Cx36 detected.

Results are given in words; binding and its absence hold for the method and conditions named. Binding seen in cells or lysates may run through a third protein. Some results given as binding are weak or reduced against the parent protein; the word gives no strength.

For “Connexin30.2 (Cx30.2), untagged (from UniProt Q91YD1 1-278)”, the binding entry in assay [1] and in assay [2] was “binds” in each case.

Consider “Connexin36 (Cx36), untagged (from UniProt O54851 1-321)”, for which the binding result in assay [1], in assay [2] and in assay [3] was “binds” in each case.

Source of the values: paper PMC4882342.
